Test results reported in PubChem BioAssay AID1347076 (National Center for Advancing Translational Sciences (NCATS), 2019).
The campaign covered roughly 400,000 compounds. About 13,000 (3.2%) were called active. Inconclusive means that the source gave no clear call. Such entries were picked first, then a sample of the others. The call rests on the fitted dose curve; in most records, active means well fitted cell-killing curve with a large enough effect; inconclusive means small, poorly fitted or top-dose-only effect, or effect the other way; inactive means flat fitted curve, though single readings scatter. A potency beside an inconclusive call is a rough fit, not a confirmed value.

Assay: qHTS assay for MDR1-selective chemotherapeutics: Primary screen using the drug-selected MDR subline cells KB-V1; further: nearly all actives have a fitted effect of over 60% in size
Details: KB-V1 MDR cells viability, CellTiter-Glo, 72 h; activity change, negative = cytotoxicity: at 46.1 µM (top of the series)
Summary of the method: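 Following 72 h at 37 degrees C with compound, KB-V1 cell viability was read by CellTiter-Glo luminescence, medium being phenol-red-free DMEM plus 10% FBS; concentration-response parameters came from normalized, curve-fitted qHTS data.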
On the % scale 0 is the no-effect control and ±100 the full control effect; potency means the concentration at half of the fitted maximal effect.

Row | SMILES | Potency | activity change, negative = cytotoxicity
1 | COc1ccc(/C=C(\NC(=O)c2ccco2)C(=O)NC(Cc2ccccc2)C(=O)O)cc1 (stereo not drawn) | inconclusive: 29.1 µM [rising, single point] | –
2 | CCOc1ncccc1C(=O)OCC(=O)Nc1cccc(S(=O)(=O)N2CCCCCC2)c1 | inconclusive: 20.6 µM [cytotoxic, single point] | –
3 | Cc1ccc(-c2cc(C(=O)NCCCn3ccnc3)c3ccccc3n2)s1 | inconclusive: 23.1 µM [cytotoxic, partial curve] | –
4 | COc1ccccc1N=Cc1c(O)c2ccccc2oc1=O | – | inactive: 12.6%
5 | COc1cccc(S(=O)(=O)N(C)C[C@@H]2Oc3cc(C#CCN(C)C)ccc3S(=O)(=O)N([C@H](C)CO)C[C@@H]2C)c1 | – | inactive: -18.3%
6 | COc1ccccc1NC(=S)Nc1cccc2cnccc12 | inconclusive: 13 µM [cytotoxic, partial curve] | –
7 | Cc1cc(NC(=O)COC(=O)COc2ccc(Cl)c(C)c2)no1 | inconclusive: 29.1 µM [rising, single point] | –
8 | COc1ccc(CC(N)c2csc(NC(=O)Nc3cccc(C(F)(F)F)c3)n2)cc1 (stereo not drawn) | inconclusive: 29.1 µM [cytotoxic, single point] | –
9 | COc1ccc(CNC(=O)c2ccc3c(=O)n4c(nc3c2)CCCCC4)cc1OC | inconclusive: 9.2 µM [cytotoxic, partial curve] | –
10 | Cn1c(=O)[nH]c(=O)c2c1nc(SCC(=O)Nc1ccccc1)n2Cc1ccccc1 | inconclusive: 29.1 µM [rising, single point] | –
11 | CCOC(=O)N1CCN(C(=O)c2cnc(Nc3ccccc3OC)c3ccccc23)CC1 | inconclusive: 1.84 µM [cytotoxic, partial curve] | –
12 | CCNc1nc2c(c(=O)n(Cc3ccccc3)c(=O)n2C)n1Cc1ccccc1 | – | inactive: -6.4%
13 | Cc1ccc(Sc2nc(-c3ccccc3)nnc2C(F)(F)F)cc1 | – | inactive: -1.86%
14 | O=C(/C(=C/O)N=Nc1ccccc1)c1cccs1 | – | inactive: 6.24%
15 | CNS(=O)(=O)c1cn(CC(=O)Nc2ccc(C(C)=O)cc2)cc1S(=O)(=O)NC | – | inactive: 10.9%
16 | N#Cc1sc(=O)[nH]c1Cl | – | inactive: -10.4%
17 | Cc1cc(C)cc(OCC(=O)N2N=C(c3cccnc3)CC2(O)C(F)(F)F)c1 (stereo not drawn) | inconclusive: 13 µM [cytotoxic, partial curve] | –
18 | CCNc1ccc(C(=O)OCC(=O)NC(C)c2ccccc2)cc1[N+](=O)[O-] (stereo not drawn) | inconclusive: 10.3 µM [cytotoxic, partial curve] | –
19 | COc1ccc2cc(C(c3nnnn3Cc3ccccc3)N3CCCCCC3)c(=O)[nH]c2c1 (stereo not drawn) | inconclusive: 29.1 µM [cytotoxic, partial curve, poor fit] | –
20 | COCCOc1ccc(C(F)(F)F)cc1NC(=O)COC(=O)Cc1c[nH]c2ccccc12 | inconclusive: 29.1 µM [rising, single point] | –
21 | Cc1ccc(-c2nc(C#N)c(NCC3CCCO3)o2)cc1 (stereo not drawn) | inconclusive: 16.4 µM [cytotoxic, single point] | –
22 | CCn1c(-c2ccccc2O)n[nH]c1=S | – | inactive: -13.3%
23 | COc1cc(C(=O)Nc2cccc3cccnc23)cc(OC)c1OC | inconclusive: 13 µM [cytotoxic, partial curve, poor fit] | –

Row | SMILES | Potency | activity change, negative = cytotoxicity
24 | Cc1c(CCC(=O)NCCCN2CCCC2=O)c(=O)oc2c(C)c(O)ccc12 | inconclusive: 29.1 µM [rising, single point] | –
25 | [O-]/[N+](=N\Nc1ccc(Cl)cc1)c1ccccc1 | – | inconclusive: -7.05%
26 | Cc1ccccc1N=C1Nc2ccccc2N[C@]12C[C@H]1CCCC(=O)N3CC[C@@H](C2)[C@@H]13 | – | inactive: -25.7%
27 | CN1CCCC(CN2c3ccccc3Sc3ccccc32)C1 (stereo not drawn) | inconclusive: 16.4 µM [cytotoxic, single point] | –
28 | Cc1ccc(NC(=O)CN(C)CC(=O)Nc2ccccc2-c2ccccc2)cc1 | inconclusive: 6.51 µM [cytotoxic, partial curve, poor fit] | –
29 | COc1ccc(OC)c(C2=NOC(C(=O)NCc3ccco3)C2)c1 (stereo not drawn) | active: 16.4 µM | –
30 | CCCOc1nc2c(c(=O)n(C)c(=O)n2C)n1CCC | inconclusive: 18.4 µM [cytotoxic, partial curve, poor fit] | –
31 | COc1ccc(-c2nnn(CC(=O)N(Cc3ccccc3Cl)C(C(=O)NCC3CCCO3)c3ccco3)n2)cc1 (stereo not drawn) | inconclusive: 8.2 µM [cytotoxic, partial curve, poor fit] | –
32 | c1ccc(CCc2cccnc2)cc1 | inconclusive: 29.1 µM [rising, single point] | –
33 | CC(Oc1cccc(Br)c1)C(=O)NNC(=O)CCNC(=O)c1ccccc1Cl (stereo not drawn) | inconclusive: 0.0116 µM [rising, full curve, poor fit] | –
34 | Cc1cc2cc(C(c3nnnn3CC3CCCO3)N3CCCc4ccccc43)c(=O)[nH]c2cc1C (stereo not drawn) | active: 20.6 µM | –
35 | CCC(C(=O)NC(C)(C)C)N(Cc1ccco1)C(=O)Cn1nnc(-c2ccc(F)cc2)n1 (stereo not drawn) | inconclusive: 8.2 µM [cytotoxic, partial curve] | –
36 | CSc1nc(C)cc(SC(C(C)=O)C(=O)Nc2ccccc2)n1 (stereo not drawn) | inconclusive: 8.2 µM [cytotoxic, partial curve] | –
37 | COc1ccc(CCNC(=O)C2CCN(S(=O)(=O)c3c(C)noc3/C=C/c3ccc(C)cc3)CC2)cc1OC | – | inactive: 16.7%
38 | COc1ccc(-c2c(C)nn3c(N)c(C#N)cnc23)cc1OC | active: 9.2 µM | –
39 | CCOC(=O)CNc1nc(C#N)nc(N2CCOCC2)n1 | inactive | –
40 | CCOC(=O)c1ccc(CNCc2ccccc2)cc1 | inconclusive: 13 µM [cytotoxic, partial curve] | –
41 | COc1ccc(C(=O)/C=C/Nc2c(C)n(C)n(-c3ccccc3)c2=O)cc1OC | inconclusive: 29.1 µM [cytotoxic, single point] | –
42 | CCOC(=O)c1[nH]c2ccc(OC)cc2c1NC(=O)CN1CCc2ccccc2C1 | inconclusive: 1.84 µM [cytotoxic, partial curve, poor fit] | –
43 | O=C(Cc1ccccc1)Nc1ccc(NC(=O)C2CC2)nc1 | – | inactive: -2.1%
44 | CCN(CCCn1c(=S)[nH]c2ncccc2c1=O)c1ccccc1 | – | inactive: -26.1%
45 | CCC(C(=O)N1CCN(c2cc(C)ccc2C)CC1)n1nc(C)n2c(cc3occc32)c1=O (stereo not drawn) | inconclusive: 29.1 µM [cytotoxic, single point] | –
46 | Cc1ccc(S(=O)(=O)N2CCc3cc(C(=O)Nc4c(F)cccc4F)ccc32)cc1 | – | inactive: 3.4%

Row | SMILES | Potency | activity change, negative = cytotoxicity
47 | Cn1c(=O)c2c(nc(N3CCOCC3)n2Cc2ccc(Br)cc2)n(C)c1=O | inconclusive: 20.6 µM [cytotoxic, partial curve] | –
48 | COc1ccc(N=c2cc(-c3ccc(O)cc3)oc3ccccc23)cc1 | inconclusive: 18.4 µM [cytotoxic, single point] | –
49 | CN(C)CCCN(C(=O)COc1ccc(Cl)cc1)c1nc2ccc(F)cc2s1 | – | inconclusive: 13.4%
50 | CC(C)NC(=O)C1(C)CN(S(C)(=O)=O)CC(=O)N1CCCN1CCOCC1 (stereo not drawn) | – | inactive: 6.83%
51 | CCOC(=O)[C@]12CCCC=C1N(Cc1ccc(Cl)cc1Cl)C(=O)[C@H](CC(=O)N1CCN(C(=O)C3CC3)CC1)C2 | inconclusive: 4.61 µM [cytotoxic, partial curve] | –
52 | Cc1c(Cl)cnc(NC(=O)COC(=O)c2ccncc2)c1Cl | inconclusive: 18.4 µM [cytotoxic, partial curve, poor fit] | –
53 | Cc1ccc(NC(=O)c2nc(S(=O)(=O)Cc3ccccc3C)ncc2Cl)cc1C | active: 18.4 µM | –
54 | S=C(NCCc1ccccc1)Nc1cccc2cnccc12 | active: 8.2 µM | –
55 | C[C@H](O)[C@@H]1CN2CCc3c([nH]c4ccccc34)[C@@H]2C[C@@H]1N(C)C(=S)NCCc1ccccc1 | inconclusive: 23.1 µM [cytotoxic, single point] | –
56 | CC(C)CC1Nc2ncnc(N3CCN(c4ccccc4)CC3)c2N(Cc2ccc(Cl)cc2)C1=O (stereo not drawn) | inconclusive: 18.4 µM [cytotoxic, partial curve] | –
57 | OC(COc1ccc(Cl)cc1)CN1C2=NCCCN2c2ccccc21 (stereo not drawn) | inconclusive: 20.6 µM [cytotoxic, partial curve] | –
58 | Cc1ccc(NC(=O)c2cc(S(=O)(=O)NCC3CCCO3)ccc2F)cc1 (stereo not drawn) | inconclusive: 20.6 µM [cytotoxic, partial curve, poor fit] | –
59 | COc1ccccc1CN1CC(C(=O)N(Cc2cnn(C)c2)C(C)C)CCC1=O (stereo not drawn) | – | inactive: 0%
60 | O=C(Cc1ccc2c(c1)OCCO2)N1CCN(S(=O)(=O)c2ccccc2C(F)(F)F)CC1 | active: 20.6 µM | –
61 | COc1ccccc1N1CCN(S(=O)(=O)c2cnc[nH]2)CC1 | inconclusive: 29.1 µM [rising, single point] | –
62 | CCOC(=O)NN1C(=O)c2ccccc2NC1c1cccc(O)c1 (stereo not drawn) | – | inconclusive: -54%
63 | COc1ccccc1CCN=C(N)NS(=O)(=O)c1cc(F)ccc1F | inconclusive: 0.58 µM [cytotoxic, full curve] | –
64 | COC(=O)c1c(NS(=O)(=O)c2ccc3ccccc3c2)sc2c1CCCC2 | active: 16.4 µM | –
65 | COc1ccc(Nc2nc3cc(-c4sccc4C)sc3c(=O)n2C)cc1OC | active: 6.51 µM | –
66 | CCOc1ccccc1N1CCN(C(=O)c2cc(-c3cc(OC)ccc3OC)nc3ccccc23)CC1 | inconclusive: 29.1 µM [cytotoxic, single point] | –
67 | C=CC(COCc1ccccc1)N([C@@H](Cc1ccccc1)C(=O)OC)S(=O)(=O)c1ccccc1Br (stereo partly drawn) | inconclusive: 14.6 µM [cytotoxic, partial curve] | –
68 | COc1ccc(C2CC(=O)c3c(C)nc(N4CCN(Cc5ccccc5)CC4)nc3C2)cc1OC (stereo not drawn) | inconclusive: 29.1 µM [cytotoxic, single point] | –

Retrieved by compound from the list above:
Row | SMILES | Potency | activity change, negative = cytotoxicity
48 | COc1ccc(N=c2cc(-c3ccc(O)cc3)oc3ccccc23)cc1 | inconclusive: 18.4 µM [cytotoxic, single point] | –
59 | COc1ccccc1CN1CC(C(=O)N(Cc2cnn(C)c2)C(C)C)CCC1=O (stereo not drawn) | – | inactive: 0%
66 | CCOc1ccccc1N1CCN(C(=O)c2cc(-c3cc(OC)ccc3OC)nc3ccccc23)CC1 | inconclusive: 29.1 µM [cytotoxic, single point] | –
